According to the supplement of paper PMC10849652:
This is one part of the list.

By UniProt entry, the sequences of proteins in these tests, tags left out. Where a name states a change or a piece, a line headed by the entry shows the natural chain unless it says otherwise.
UniProt P11940, whole entry, looked up: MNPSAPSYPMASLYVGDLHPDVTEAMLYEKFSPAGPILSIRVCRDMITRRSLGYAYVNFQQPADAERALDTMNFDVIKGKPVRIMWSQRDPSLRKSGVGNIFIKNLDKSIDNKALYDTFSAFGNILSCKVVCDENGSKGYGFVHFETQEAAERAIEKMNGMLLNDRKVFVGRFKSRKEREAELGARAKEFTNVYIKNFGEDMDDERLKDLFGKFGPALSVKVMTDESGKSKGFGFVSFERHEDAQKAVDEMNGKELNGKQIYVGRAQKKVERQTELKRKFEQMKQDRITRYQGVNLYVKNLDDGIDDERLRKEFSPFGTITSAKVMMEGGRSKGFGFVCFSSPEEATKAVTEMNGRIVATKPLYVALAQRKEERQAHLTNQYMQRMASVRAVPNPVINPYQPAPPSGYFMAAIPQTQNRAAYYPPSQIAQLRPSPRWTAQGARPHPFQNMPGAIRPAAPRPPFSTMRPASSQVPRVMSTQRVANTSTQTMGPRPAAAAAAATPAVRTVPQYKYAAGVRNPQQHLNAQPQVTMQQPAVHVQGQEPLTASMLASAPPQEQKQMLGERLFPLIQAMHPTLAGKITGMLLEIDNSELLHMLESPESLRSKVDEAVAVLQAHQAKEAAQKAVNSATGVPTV
UniProt O15294: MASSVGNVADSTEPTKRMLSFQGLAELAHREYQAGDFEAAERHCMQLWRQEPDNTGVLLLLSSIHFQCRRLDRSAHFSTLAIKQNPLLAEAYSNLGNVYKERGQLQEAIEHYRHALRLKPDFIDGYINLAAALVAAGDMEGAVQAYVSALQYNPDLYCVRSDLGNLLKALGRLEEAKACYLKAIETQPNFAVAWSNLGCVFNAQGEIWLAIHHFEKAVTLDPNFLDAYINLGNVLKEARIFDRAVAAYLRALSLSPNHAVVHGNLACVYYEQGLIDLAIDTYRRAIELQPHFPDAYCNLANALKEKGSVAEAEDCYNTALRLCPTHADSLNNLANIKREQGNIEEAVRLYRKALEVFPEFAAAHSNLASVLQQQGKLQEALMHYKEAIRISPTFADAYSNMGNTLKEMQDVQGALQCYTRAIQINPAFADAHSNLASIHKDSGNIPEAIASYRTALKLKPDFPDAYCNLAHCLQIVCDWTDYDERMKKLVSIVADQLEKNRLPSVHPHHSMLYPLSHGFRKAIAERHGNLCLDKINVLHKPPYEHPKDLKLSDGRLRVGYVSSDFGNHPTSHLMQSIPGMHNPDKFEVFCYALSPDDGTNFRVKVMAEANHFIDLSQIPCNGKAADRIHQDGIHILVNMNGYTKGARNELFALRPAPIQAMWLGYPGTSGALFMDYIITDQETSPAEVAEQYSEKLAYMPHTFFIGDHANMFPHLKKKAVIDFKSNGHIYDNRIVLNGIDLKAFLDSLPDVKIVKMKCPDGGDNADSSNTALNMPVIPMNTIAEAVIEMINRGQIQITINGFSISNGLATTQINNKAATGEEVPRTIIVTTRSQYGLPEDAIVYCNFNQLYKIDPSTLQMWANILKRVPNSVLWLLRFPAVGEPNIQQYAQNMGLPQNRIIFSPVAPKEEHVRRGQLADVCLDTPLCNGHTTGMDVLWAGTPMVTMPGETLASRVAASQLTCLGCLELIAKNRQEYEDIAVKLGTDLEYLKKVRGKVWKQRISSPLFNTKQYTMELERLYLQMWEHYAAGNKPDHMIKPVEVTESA
UniProt Q99567: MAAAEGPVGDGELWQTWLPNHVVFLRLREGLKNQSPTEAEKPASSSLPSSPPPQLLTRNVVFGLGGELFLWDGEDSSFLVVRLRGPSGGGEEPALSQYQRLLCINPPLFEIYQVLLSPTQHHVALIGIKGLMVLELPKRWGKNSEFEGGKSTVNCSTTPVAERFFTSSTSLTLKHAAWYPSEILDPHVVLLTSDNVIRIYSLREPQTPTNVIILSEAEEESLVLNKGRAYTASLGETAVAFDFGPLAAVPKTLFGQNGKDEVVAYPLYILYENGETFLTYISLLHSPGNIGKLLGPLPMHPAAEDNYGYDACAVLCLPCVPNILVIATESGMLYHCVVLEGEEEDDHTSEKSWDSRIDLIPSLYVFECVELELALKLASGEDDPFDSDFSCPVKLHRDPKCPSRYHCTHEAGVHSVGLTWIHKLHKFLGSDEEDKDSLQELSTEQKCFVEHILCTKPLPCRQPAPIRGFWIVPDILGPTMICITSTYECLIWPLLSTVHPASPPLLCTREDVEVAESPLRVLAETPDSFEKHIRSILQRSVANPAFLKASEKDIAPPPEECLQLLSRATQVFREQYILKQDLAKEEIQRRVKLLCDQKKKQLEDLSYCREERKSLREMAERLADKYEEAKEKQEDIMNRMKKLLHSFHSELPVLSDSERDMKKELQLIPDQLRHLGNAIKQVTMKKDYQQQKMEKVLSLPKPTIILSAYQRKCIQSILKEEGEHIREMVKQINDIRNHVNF
UniProt O43913: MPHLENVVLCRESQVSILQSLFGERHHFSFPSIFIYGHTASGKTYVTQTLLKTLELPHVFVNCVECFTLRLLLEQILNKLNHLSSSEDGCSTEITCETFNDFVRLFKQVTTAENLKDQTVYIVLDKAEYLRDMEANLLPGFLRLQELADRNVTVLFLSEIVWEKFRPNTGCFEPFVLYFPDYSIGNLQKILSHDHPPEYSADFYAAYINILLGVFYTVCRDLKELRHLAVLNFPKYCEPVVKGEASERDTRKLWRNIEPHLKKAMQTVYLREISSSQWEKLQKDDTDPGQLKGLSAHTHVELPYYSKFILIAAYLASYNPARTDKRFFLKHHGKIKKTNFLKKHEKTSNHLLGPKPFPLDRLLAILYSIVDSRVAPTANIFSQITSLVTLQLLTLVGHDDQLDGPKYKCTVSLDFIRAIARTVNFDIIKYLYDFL
UniProt Q96FW1, whole entry, looked up: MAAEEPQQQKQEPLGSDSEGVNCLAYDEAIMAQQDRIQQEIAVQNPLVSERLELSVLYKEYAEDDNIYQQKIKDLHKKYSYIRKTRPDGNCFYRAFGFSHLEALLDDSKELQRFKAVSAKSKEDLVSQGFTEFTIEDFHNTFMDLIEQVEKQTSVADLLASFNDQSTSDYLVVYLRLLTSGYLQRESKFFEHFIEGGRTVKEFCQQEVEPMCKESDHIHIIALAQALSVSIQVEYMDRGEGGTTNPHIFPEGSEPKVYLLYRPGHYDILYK
UniProt Q96GU1: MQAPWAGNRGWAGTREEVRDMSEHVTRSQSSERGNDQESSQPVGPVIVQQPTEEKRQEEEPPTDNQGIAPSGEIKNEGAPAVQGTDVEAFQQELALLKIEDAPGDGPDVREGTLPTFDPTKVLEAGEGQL
UniProt Q6VY07, whole entry, looked up: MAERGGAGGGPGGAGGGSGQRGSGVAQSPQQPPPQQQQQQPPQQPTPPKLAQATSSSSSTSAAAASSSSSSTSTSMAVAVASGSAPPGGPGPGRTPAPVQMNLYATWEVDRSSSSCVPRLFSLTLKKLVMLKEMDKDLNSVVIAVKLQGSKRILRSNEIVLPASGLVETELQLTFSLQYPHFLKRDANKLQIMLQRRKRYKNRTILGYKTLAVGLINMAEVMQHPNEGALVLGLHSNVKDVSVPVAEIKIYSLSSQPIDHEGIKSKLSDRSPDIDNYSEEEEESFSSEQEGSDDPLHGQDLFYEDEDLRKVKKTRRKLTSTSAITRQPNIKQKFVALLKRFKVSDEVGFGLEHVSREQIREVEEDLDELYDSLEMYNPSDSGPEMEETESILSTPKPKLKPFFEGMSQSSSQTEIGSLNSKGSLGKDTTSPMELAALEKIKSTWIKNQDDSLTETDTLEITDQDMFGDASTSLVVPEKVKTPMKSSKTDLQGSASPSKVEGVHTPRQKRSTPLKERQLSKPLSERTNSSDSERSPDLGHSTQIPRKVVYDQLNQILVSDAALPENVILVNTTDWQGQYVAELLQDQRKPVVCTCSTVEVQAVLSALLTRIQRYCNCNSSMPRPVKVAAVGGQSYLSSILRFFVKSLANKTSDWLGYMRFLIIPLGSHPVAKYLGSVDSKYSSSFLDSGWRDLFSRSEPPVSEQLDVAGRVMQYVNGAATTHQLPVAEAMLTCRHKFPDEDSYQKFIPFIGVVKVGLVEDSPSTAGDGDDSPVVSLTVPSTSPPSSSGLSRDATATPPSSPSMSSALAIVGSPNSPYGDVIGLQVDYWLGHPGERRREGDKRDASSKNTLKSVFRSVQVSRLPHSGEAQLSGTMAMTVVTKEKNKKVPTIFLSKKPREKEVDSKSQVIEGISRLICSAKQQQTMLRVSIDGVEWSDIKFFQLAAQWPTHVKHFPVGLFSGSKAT
UniProt Q9NTK5, whole entry, looked up: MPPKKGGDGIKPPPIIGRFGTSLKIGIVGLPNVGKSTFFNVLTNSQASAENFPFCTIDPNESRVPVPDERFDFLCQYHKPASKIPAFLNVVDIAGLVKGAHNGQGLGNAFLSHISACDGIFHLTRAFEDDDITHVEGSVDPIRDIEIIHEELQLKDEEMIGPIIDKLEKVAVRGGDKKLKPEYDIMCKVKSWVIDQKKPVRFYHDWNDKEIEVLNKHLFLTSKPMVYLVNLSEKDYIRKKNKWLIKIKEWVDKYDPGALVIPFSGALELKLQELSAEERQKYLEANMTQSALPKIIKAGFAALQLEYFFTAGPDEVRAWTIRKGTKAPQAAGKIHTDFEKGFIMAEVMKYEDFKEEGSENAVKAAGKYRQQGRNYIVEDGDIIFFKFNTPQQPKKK
UniProt Q9BZF1: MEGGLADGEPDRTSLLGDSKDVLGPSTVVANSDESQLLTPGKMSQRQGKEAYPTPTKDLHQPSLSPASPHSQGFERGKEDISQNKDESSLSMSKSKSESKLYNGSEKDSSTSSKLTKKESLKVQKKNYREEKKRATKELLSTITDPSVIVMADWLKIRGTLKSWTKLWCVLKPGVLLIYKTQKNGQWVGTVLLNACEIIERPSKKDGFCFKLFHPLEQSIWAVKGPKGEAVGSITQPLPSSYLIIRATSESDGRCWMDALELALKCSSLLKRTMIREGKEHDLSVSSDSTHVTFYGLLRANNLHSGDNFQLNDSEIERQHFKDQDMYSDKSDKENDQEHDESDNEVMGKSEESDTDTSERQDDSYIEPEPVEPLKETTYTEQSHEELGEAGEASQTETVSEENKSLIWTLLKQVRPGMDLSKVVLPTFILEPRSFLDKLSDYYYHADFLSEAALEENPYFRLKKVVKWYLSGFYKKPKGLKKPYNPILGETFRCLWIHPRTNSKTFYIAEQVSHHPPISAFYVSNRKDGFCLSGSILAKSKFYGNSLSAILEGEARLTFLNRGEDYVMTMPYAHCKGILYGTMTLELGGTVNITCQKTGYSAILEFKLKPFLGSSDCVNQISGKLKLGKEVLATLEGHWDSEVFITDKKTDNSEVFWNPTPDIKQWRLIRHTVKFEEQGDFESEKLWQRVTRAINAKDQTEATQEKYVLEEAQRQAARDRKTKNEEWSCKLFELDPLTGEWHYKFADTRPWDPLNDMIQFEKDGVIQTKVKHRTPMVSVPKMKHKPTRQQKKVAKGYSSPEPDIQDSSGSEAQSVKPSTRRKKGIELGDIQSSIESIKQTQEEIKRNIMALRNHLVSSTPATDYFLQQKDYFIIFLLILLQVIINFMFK
UniProt O43482, whole entry, looked up: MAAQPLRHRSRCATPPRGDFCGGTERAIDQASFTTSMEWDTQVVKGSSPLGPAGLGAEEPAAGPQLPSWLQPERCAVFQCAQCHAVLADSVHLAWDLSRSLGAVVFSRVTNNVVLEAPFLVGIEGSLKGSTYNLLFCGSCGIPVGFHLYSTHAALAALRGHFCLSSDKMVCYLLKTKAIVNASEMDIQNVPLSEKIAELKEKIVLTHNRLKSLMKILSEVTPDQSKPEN
UniProt Q9BTK6, whole entry, looked up: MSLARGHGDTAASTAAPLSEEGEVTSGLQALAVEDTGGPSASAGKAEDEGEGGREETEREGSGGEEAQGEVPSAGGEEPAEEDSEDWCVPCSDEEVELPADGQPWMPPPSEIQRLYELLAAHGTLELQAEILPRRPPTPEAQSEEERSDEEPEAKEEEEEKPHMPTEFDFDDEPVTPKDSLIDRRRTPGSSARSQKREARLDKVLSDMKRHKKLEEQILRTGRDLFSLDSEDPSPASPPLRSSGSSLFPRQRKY
UniProt Q9BVL2: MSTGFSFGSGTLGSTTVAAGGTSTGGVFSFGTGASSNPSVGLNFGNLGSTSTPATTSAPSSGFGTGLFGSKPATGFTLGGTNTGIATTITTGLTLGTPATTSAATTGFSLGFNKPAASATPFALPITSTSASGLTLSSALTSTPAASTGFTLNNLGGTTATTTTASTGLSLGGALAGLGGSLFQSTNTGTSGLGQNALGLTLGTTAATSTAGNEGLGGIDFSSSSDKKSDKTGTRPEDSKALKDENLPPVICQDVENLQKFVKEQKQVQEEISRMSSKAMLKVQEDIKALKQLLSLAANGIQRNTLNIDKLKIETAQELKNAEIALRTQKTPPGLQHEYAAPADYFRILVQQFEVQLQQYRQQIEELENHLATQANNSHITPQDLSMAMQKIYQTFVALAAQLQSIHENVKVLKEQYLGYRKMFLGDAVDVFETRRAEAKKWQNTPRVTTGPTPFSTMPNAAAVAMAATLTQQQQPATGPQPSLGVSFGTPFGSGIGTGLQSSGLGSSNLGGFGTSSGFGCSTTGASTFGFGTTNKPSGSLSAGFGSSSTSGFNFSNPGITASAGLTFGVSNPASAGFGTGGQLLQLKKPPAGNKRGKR

Legend:
Assay in all cases: log2 fold change, soluble protein after heating vs DMSO (PISA); higher = thermal stabilisation; K562 lysate, 10 uM; active = over 0.2 and 3.5 SD of the protein, either way, in both replicates (recomputed)
[1] = compound: CCCS(=O)(=O)Nc1ccc(F)c(C(=O)c2c[nH]c3ncc(-c4ccc(Cl)cc4)cc23)c1F [vemurafenib]
In short: (§1)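 A 30 min treatment with 10 μM compound was applied to crude K562 extract at 1 mg/mL protein in PBS pH 7.4 with 1 mM MgCl2. Heating for 3 min spanned 48°C-58°C, after which aliquots were pooled, adjusted to 0.5% NP-40 at 4°C and spun at 21,000xg for 90 min. TMTpro 16plex LC-MS/MS of the supernatant, with channel sums equalised, gave values recorded as log-two fold change in thermal stability against solvent controls, from duplicates.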

[2] = compound: CCCS(=O)(=O)Nc1ccc(F)c(C(=O)c2c[nH]c3ncc(Cl)cc23)c1F
In short: as §1

[3] = compound: CCN(CCCOc1ccc2c(Nc3cc(CC(=O)Nc4cccc(F)c4)[nH]n3)ncnc2c1)CCOP(=O)(O)O [barasertib]
In short: as §1

[4] = compound: CC[C@@H]1C(=O)N(C)c2cnc(Nc3ccc(C(=O)NC4CCN(C)CC4)cc3OC)nc2N1C1CCCC1
In short: as §1

[5] = compound: CC[C@@H]1C(=O)N(C)c2cnc(Nc3ccc(C(=O)N[C@H]4CC[C@H](N5CCN(CC6CC6)CC5)CC4)cc3OC)nc2N1C(C)C [volasertib]
In short: as §1

[6] = compound: CCn1c(C(=O)N(C2CC2)C2CC2)cc2c3c(ncn3C)c(Nc3cc(C)n(C)n3)nc21
In short: as §1

[7] = compound: CCn1cc(-c2ccnc3[nH]c(-c4cccc(CN(C)C)c4)cc23)c(-c2ccc(NC(=O)N(C)C)cc2)n1
In short: as §1

[8] = compound: CN1CCC(CNc2ccc3ncc(-c4cccc(OC(F)(F)F)c4)n3n2)CC1
In short: as §1

[9] = compound: CN1CCN(CCOc2cc(OC3CCOCC3)c3c(Nc4c(Cl)ccc5c4OCO5)ncnc3c2)CC1 [saracatinib]
In short: as §1

[10] = compound: CN1CCN(c2nc(C3=C(c4c[nH]c5ccccc45)C(=O)NC3=O)c3ccccc3n2)CC1 [sotrastaurin]
In short: as §1

[11] = compound: CN1CC[C@H](c2c(O)cc(O)c3c(=O)cc(-c4ccccc4Cl)oc23)[C@H](O)C1 [alvocidib]
In short: as §1

[12] = compound: CN1CCc2c(c3ccccc3n2Cc2ccc(C(=O)NO)cc2)C1 [Tubastatin A]
In short: as §1

[13] = compound: CNC(=O)C1=CC=CC=C1NC2=NC(=NC=C2Cl)NC3=C(C=C(C=C3)N4CCOCC4)OC
In short: as §1

[14] = compound: CNC(=O)c1ccc(Nc2ncc(C(F)(F)F)c(NCc3nccnc3N(C)S(C)(=O)=O)n2)cc1 [defactinib]
In short: as §1

[15] = compound: CNc1nc(-c2ccc3c(N)n[nH]c3c2)cc(N2C[C@@H](C(=O)NC3CCCCC3)CC[C@H]2C)n1
In short: as §1

[16] = compound: COC(=O)N[C@@H](C)CNc1nccc(-c2cn(C(C)C)nc2-c2cc(Cl)cc(NS(C)(=O)=O)c2F)n1 [encorafenib]
In short: as §1

[17] = compound: COC(=O)[C@H](CCSC)NC(=O)C1=C(C=C(C=C1)NC[C@H](CS)N)C2=CC=CC=C2
In short: as §1

[18] = compound: COc1cc(Nc2ncc3c(n2)-c2ccc(Cl)cc2C(c2c(F)cccc2OC)=NC3)ccc1C(=O)O [alisertib]
In short: as §1

[19] = compound: COc1cc2nc(-c3cc(F)ccc3O)nc(N[C@@H]3CNC[C@H]3C(C)(C)O)c2cc1OC
In short: as §1

[20] = compound: COc1cc2ncnc(Nc3ccc(F)c(Cl)c3)c2cc1OCCCN1CCOCC1 [gefitinib]
In short: as §1

Measured: log2 fold change

PABPC1 (UniProt P11940)
inactive: [1] -0.027 | [2] -0.012 | [3] 0.007 | [4] -0.075 | [5] -0.018 | [6] 0.016 | [7] 0.13 | [8] -0.163 | [9] 0.013 | [10] 0.007 | [11] 0.051 | [12] -0.004 | [13] -0.037 | [14] -0.004 | [15] -0.059 | [16] -0.006 | [17] -0.038 | [18] -0.009 | [19] -0.009 | [20] 0.022

OPA3 (UniProt Q9H6K4)
inactive: [1] -0.052 | [2] 0.082 | [3] 0.095 | [4] 0.026 | [5] 0.063 | [6] -0.093 | [7] 0.05 | [8] -0.068 | [9] 0.01 | [10] -0.041 | [11] -0.047 | [12] -0.093 | [13] -0.055 | [14] -0.018 | [15] 0.036 | [16] 0.007 | [17] 0.132 | [18] 0.004 | [19] -0.162 | [20] 0.13

OGT (UniProt O15294)
inactive: [1] 0.012 | [2] 0.015 | [3] 0.031 | [4] -0.003 | [5] -0.058 | [6] 0.036 | [7] -0.002 | [8] -0.021 | [9] 0.011 | [10] 0.018 | [11] 0.045 | [12] -0.129 | [13] 0.054 | [14] 0.018 | [15] 0.019 | [16] 0.043 | [17] 0.121 | [18] 0.01 | [19] 0.007 | [20] -0.015

NUP88 (UniProt Q99567)
inactive: [1] -0.019 | [2] -0.016 | [3] 0.061 | [4] 0.015 | [5] -0.035 | [6] 0.038 | [7] -0.052 | [8] 0.004 | [9] -0.005 | [10] -0.002 | [11] 0.003 | [12] 0.048 | [13] 0.006 | [14] 0.028 | [15] -0.016 | [16] 0.052 | [17] 0.007 | [18] 0.01 | [19] 0.024 | [20] 0.026

ORC5 (UniProt O43913)
inactive: [1] -0.059 | [2] -0.001 | [3] -0.052 | [4] -0.156 | [5] -0.023 | [6] 0.013 | [7] -0.038 | [8] 0.01 | [9] -0.001 | [10] 0.024 | [11] 0.001 | [12] -0.163 | [13] 0.001 | [14] 0.062 | [15] -0.008 | [16] 0.049 | [17] 0.165 | [18] -0.004 | [19] 0.006 | [20] -0.011

OTUB1 (UniProt Q96FW1)
inactive: [1] 0.016 | [2] -0.018 | [3] 0.021 | [4] -0.016 | [5] 0.018 | [6] -0.01 | [7] -0.047 | [8] 0.023 | [9] -0.03 | [10] -0.001 | [11] 0.002 | [12] 0.037 | [13] 0.006 | [14] -0.008 | [15] -0.01 | [16] -0.019 | [17] 0.009 | [18] 0.029 | [19] -0.008 | [20] -0.044

PAGE5 (UniProt Q96GU1)
inactive: [1] -0.115 | [2] -0.103 | [3] 0.133 | [4] -0.059 | [5] 0.069 | [6] 0.078 | [7] 0.145 | [8] -0.222 | [9] 0.053 | [10] 0.025 | [11] 0.26 | [12] 0.143 | [13] 0.069 | [14] 0.238 | [15] -0.044 | [16] 0.036 | [17] 0.011 | [18] -0.043 | [19] -0.165 | [20] -0.211

P4HB (UniProt P07237)
inactive: [1] -0.009 | [2] -0.014 | [3] -0.033 | [4] 0.029 | [5] 0.028 | [6] 0.015 | [7] 0.056 | [8] -0.018 | [9] -0.021 | [10] 0.035 | [11] 0.006 | [12] 0.015 | [13] -0.021 | [14] -0.026 | [15] -0.023 | [16] -0.009 | [17] -0.046 | [18] -0.004 | [19] -0.011 | [20] 0.022

PAFAH1B1 (UniProt P43034)
inactive: [1] 0.011 | [2] 0.013 | [3] -0.019 | [4] 0.01 | [5] 0.013 | [6] 0.011 | [7] 0.093 | [8] -0.054 | [9] -0.003 | [10] 0.018 | [11] 0.038 | [12] 0.02 | [13] -0.001 | [14] -0.006 | [15] -0.011 | [16] -0.004 | [17] -0.058 | [18] -0.018 | [19] -0.01 | [20] -0.014

PACS1 (UniProt Q6VY07)
inactive: [1] 0.005 | [2] -0.033 | [3] 0.033 | [4] 0.003 | [5] 0.009 | [6] 0.02 | [7] -0.044 | [8] 0.022 | [9] 0.032 | [10] 0.016 | [11] 0.015 | [12] 0.001 | [13] 0.057 | [14] 0.002 | [15] -0.011 | [16] -0.014 | [17] -0.012 | [18] 0.067 | [19] -0.017 | [20] 0.061

OLA1 (UniProt Q9NTK5)
inactive: [1] 0.025 | [2] 0.001 | [3] 0.012 | [4] -0.047 | [5] -0.029 | [6] 0.04 | [7] -0.135 | [8] 0.035 | [9] -0.003 | [10] 0.026 | [11] -0.002 | [12] -0.095 | [13] 0.019 | [14] -0.029 | [15] -0.02 | [16] 0.008 | [17] -0.004 | [18] 0.017 | [19] 0.011 | [20] -0.026

OSBPL8 (UniProt Q9BZF1)
inactive: [1] 0.006 | [2] -0.017 | [3] 0.057 | [4] 0.054 | [5] -0.009 | [6] -0.013 | [7] 0.012 | [8] -0.1 | [9] -0.019 | [10] 0.025 | [11] 0.027 | [12] -0.021 | [13] 0.011 | [14] 0.054 | [15] 0.035 | [16] 0.07 | [17] 0.07 | [18] 0.001 | [19] 0.072 | [20] 0.029

PAICS (UniProt P22234)
inactive: [1] -0.007 | [2] 0.014 | [3] -0.029 | [4] 0.018 | [5] 0.026 | [6] -0.042 | [7] 0.015 | [8] 0.052 | [9] -0.033 | [10] -0.007 | [11] -0.029 | [12] 0.073 | [13] -0.017 | [14] -0.023 | [15] 0.023 | [16] -0.05 | [17] -0.05 | [18] 0.015 | [19] 0.018 | [20] -0.012

OIP5 (UniProt O43482)
inactive: [1] -0.038 | [2] 0.002 | [3] -0.051 | [4] 0.022 | [5] 0.045 | [6] -0.035 | [7] -0.084 | [8] 0.051 | [9] -0.024 | [10] 0.101 | [11] -0.041 | [12] 0.026 | [13] 0.016 | [14] 0.016 | [15] 0.069 | [16] 0.018 | [17] -0.028 | [18] -0.043 | [19] 0.011 | [20] 0.009

PAGR1 (UniProt Q9BTK6)
inactive: [1] 0.043 | [2] 0.036 | [3] -0.068 | [4] -0.002 | [5] 0.048 | [6] -0.011 | [7] -0.047 | [8] -0.007 | [9] 0 | [10] 0.086 | [11] 0.084 | [12] -0.295 | [13] -0.114 | [14] 0.013 | [15] -0.015 | [16] 0.077 | [17] 0.037 | [18] -0.023 | [19] -0.034 | [20] 0.013

Retrieved one by one from the entries so far (2):
OLA1 (UniProt Q9NTK5)
inactive: [1] 0.025 | [2] 0.001 | [3] 0.012 | [4] -0.047 | [5] -0.029 | [6] 0.04 | [7] -0.135 | [8] 0.035 | [9] -0.003 | [10] 0.026 | [11] -0.002 | [12] -0.095 | [13] 0.019 | [14] -0.029 | [15] -0.02 | [16] 0.008 | [17] -0.004 | [18] 0.017 | [19] 0.011 | [20] -0.026

OSBPL8 (UniProt Q9BZF1)
inactive: [1] 0.006 | [2] -0.017 | [3] 0.057 | [4] 0.054 | [5] -0.009 | [6] -0.013 | [7] 0.012 | [8] -0.1 | [9] -0.019 | [10] 0.025 | [11] 0.027 | [12] -0.021 | [13] 0.011 | [14] 0.054 | [15] 0.035 | [16] 0.07 | [17] 0.07 | [18] 0.001 | [19] 0.072 | [20] 0.029

Remaining list, next part

NUP58 (UniProt Q9BVL2)
inactive: [1] 0.014 | [2] -0.017 | [3] 0.052 | [4] 0.094 | [5] 0.024 | [6] 0.033 | [7] -0.107 | [8] 0.073 | [9] -0.018 | [10] 0 | [11] -0.031 | [12] 0.059 | [13] -0.012 | [14] -0.033 | [15] -0.003 | [16] -0.018 | [17] -0.056 | [18] 0.009 | [19] 0.034 | [20] 0.115
